# Data: the supplement of paper PMC8728848
# Some of the results follow.
# B1: CcfD (Bacteroides vulgatus), A6KYX8 (protein)
# chain: MKYKNYFKSIIYLALGAFTLGSCEDFLDRQEDEKLTFDKIWESRNTTQQYWLNAMSFLPNENGSLQGDTEPYLGASDECTIAYDRQYRWINFGTWNPSQVPYYKMDHYYKGIRECNIFLQNVYKCSDPLVTKDQLDEWYWQTRFARAYYYFLMMRDYGPVFLLGDDLLDFTASTEELYRPRNTWDQCVNYVVSEMTQCAESGVVLQQSDLPAAKWGLATVGTCHAVISRLLLYSARPLFNGNKLYSTVKNPDAPDFPELSGVKLFPELDNTKWQKAAEAAKKLIDNPCYELYRAGNDNPYEDYYGVTHETWNKELIWTDRYNGLFSWGVGTVPTGVAGTAYGAVGPTQALVDAYAMNTGWYPITGYEADGTPIVEPLSGYELASELEKSSWIYPSGGWSNKADFEIEAPNMYKDREPRFYVTVFFGGNQWLHGNSATSISFAKGGNGNKSHDYPKSGYLCNRFYDHKLNSSEGQWGNITFPVFRLGEIYLNFIEAVLECKKNGVALDPSYEALAMEKWADLRKRAGLDPITSIYGQVSTEELIQLCRKERQIELAFERHRYFDTRTWMIATQTDNGKMYGMNTSCPLDAGMKGTETPDGFWERTAFETRVFQNKHYLYPFSQRELDRNKLLTQNYGW
# Key:
# Assay in all cases: glycan array binding signal (z-score within array); higher = stronger binding
# Details in all cases: glycan notation: IUPAC condensed, linker removed
# [1] = molecular target: Fuc(a1-2)[GalNAc(b1-3)]Gal
# Method in brief: (§1)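 The binding signal is a Z-score computed within each array. Data were drawn from 3228 arrays in the Consortium for Functional Glycomics database, restricted to those with a known protein sequence. Scores were averaged over arrays of the same protein sequence at different concentrations or buffers, and over linkers, and negative values can be taken as non-binding.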
# [2] = molecular target: Fuc(a1-3)GlcNAc
# Method in brief: as §1
# [3] = molecular target: Fuc(a1-3)[Gal(b1-4)]Glc6S
# Method in brief: as §1
# [4] = molecular target: Fuc(a1-3)[Gal(b1-4)]GlcNAc
# Method in brief: as §1
# [5] = molecular target: Fuc(a1-3)[Gal(b1-4)]GlcNAc(b1-2)Man
# Method in brief: as §1
# [6] = molecular target: Fuc(a1-3)[Gal(b1-4)]GlcNAc(b1-2)Man(a1-3)[Fuc(a1-3)[Gal(b1-4)]GlcNAc(b1-2)Man(a1-6)]Man(b1-4)GlcNAc(b1-4)GlcNAc
# Method in brief: as §1
# [7] = molecular target: Fuc(a1-3)[Gal(b1-4)]GlcNAc(b1-2)Man(a1-3)[Fuc(a1-3)[Gal(b1-4)]GlcNAc(b1-2)Man(a1-6)]Man(b1-4)GlcNAc(b1-4)[Fuc(a1-6)]GlcNAc
# Method in brief: as §1
# [8] = molecular target: Fuc(a1-3)[Gal(b1-4)]GlcNAc(b1-3)Gal(b1-3)[Fuc(a1-4)]GlcNAc
# Method in brief: as §1
# [9] = molecular target: Fuc(a1-3)[Gal(b1-4)]GlcNAc(b1-3)Gal(b1-4)[Fuc(a1-3)]GlcNAc
# Method in brief: as §1
# [10] = molecular target: Fuc(a1-3)[Gal(b1-4)]GlcNAc(b1-3)Gal(b1-4)[Fuc(a1-3)]GlcNAc(b1-3)Gal(b1-4)[Fuc(a1-3)]GlcNAc
# Method in brief: as §1
# [11] = molecular target: Fuc(a1-3)[Gal(b1-4)]GlcNAc(b1-3)GalNAc
# Method in brief: as §1
# [12] = molecular target: Fuc(a1-3)[Gal(b1-4)]GlcNAc(b1-6)GalNAc
# Method in brief: as §1
# [13] = molecular target: Fuc(a1-3)[Gal(b1-4)]GlcNAc(b1-6)[Gal(b1-3)GlcNAc(b1-3)]Gal(b1-4)Glc
# Method in brief: as §1
# [14] = molecular target: Fuc(a1-3)[Gal(b1-4)]GlcNAc6S
# Method in brief: as §1
# [15] = molecular target: Fuc(a1-3)[Gal3S(b1-4)]Glc
# Method in brief: as §1
# [16] = molecular target: Fuc(a1-3)[Gal3S(b1-4)]GlcNAc
# Method in brief: as §1
# [17] = molecular target: Fuc(a1-3)[Gal3S(b1-4)]GlcNAc6S
# Method in brief: as §1
# [18] = molecular target: Fuc(a1-3)[GalNAc(b1-4)]GlcNAc
# Method in brief: as §1
# [19] = molecular target: Fuc(a1-3)[GalNAc(b1-4)]GlcNAc6S
# Method in brief: as §1
# [20] = molecular target: Fuc(a1-4)GlcNAc
# Method in brief: as §1
# [21] = molecular target: Fuc(b1-3)GlcNAc
# Method in brief: as §1
# [22] = molecular target: Gal(a1-2)Gal
# Method in brief: as §1
# [23] = molecular target: Gal(a1-3)Gal
# Method in brief: as §1
# [24] = molecular target: Gal(a1-3)Gal(b1-3)GlcNAc
# Method in brief: as §1
# [25] = molecular target: Gal(a1-3)Gal(b1-3)GlcNAc(b1-2)Man
# Method in brief: as §1
# [26] = molecular target: Gal(a1-3)Gal(b1-3)GlcNAc(b1-2)Man(a1-3)[Gal(a1-3)Gal(b1-3)GlcNAc(b1-2)Man(a1-6)]Man(b1-4)GlcNAc(b1-4)GlcNAc
# Method in brief: as §1
# [27] = molecular target: Gal(a1-3)Gal(b1-3)GlcNAc(b1-3)GalNAc
# Method in brief: as §1
# [28] = molecular target: Gal(a1-3)Gal(b1-3)GlcNAc(b1-6)GalNAc
# Method in brief: as §1
# [29] = molecular target: Gal(a1-3)Gal(b1-3)[Fuc(a1-4)]GlcNAc(b1-2)Man(a1-3)[Gal(a1-3)Gal(b1-3)[Fuc(a1-4)]GlcNAc(b1-2)Man(a1-6)]Man(b1-4)GlcNAc(b1-4)GlcNAc
# Method in brief: as §1
# [30] = molecular target: Gal(a1-3)Gal(b1-4)Glc
# Method in brief: as §1
# [31] = molecular target: Gal(a1-3)Gal(b1-4)GlcNAc
# Method in brief: as §1
# [32] = molecular target: Gal(a1-3)Gal(b1-4)GlcNAc(b1-2)Man
# Method in brief: as §1
# [33] = molecular target: Gal(a1-3)Gal(b1-4)GlcNAc(b1-2)Man(a1-3)[Gal(a1-3)Gal(b1-4)GlcNAc(b1-2)Man(a1-6)]Man(b1-4)GlcNAc(b1-4)GlcNAc
# Method in brief: as §1
# [34] = molecular target: Gal(a1-3)Gal(b1-4)GlcNAc(b1-3)GalNAc
# Method in brief: as §1
# [35] = molecular target: Gal(a1-3)Gal(b1-4)GlcNAc(b1-6)GalNAc
# Method in brief: as §1
# [36] = molecular target: Gal(a1-3)Gal(b1-4)[Fuc(a1-3)]GlcNAc
# Method in brief: as §1
# [37] = molecular target: Gal(a1-3)Gal(b1-4)[Fuc(a1-3)]GlcNAc(b1-2)Man(a1-3)[Gal(a1-3)Gal(b1-4)[Fuc(a1-3)]GlcNAc(b1-2)Man(a1-6)]Man(b1-4)GlcNAc(b1-4)GlcNAc
# Method in brief: as §1
# [38] = molecular target: Gal(a1-3)GalNAc
# Method in brief: as §1
# [39] = molecular target: Gal(a1-3)[Gal(a1-4)]Gal(b1-4)GlcNAc
# Method in brief: as §1
# [40] = molecular target: Gal(a1-4)Gal(b1-3)GlcNAc(b1-2)Man(a1-3)[Gal(a1-4)Gal(b1-3)GlcNAc(b1-2)Man(a1-6)]Man(b1-4)GlcNAc(b1-4)GlcNAc
# Method in brief: as §1
# [41] = molecular target: Gal(a1-4)Gal(b1-4)Glc
# Method in brief: as §1
# [42] = molecular target: Gal(a1-4)Gal(b1-4)GlcNAc
# Method in brief: as §1
# [43] = molecular target: Gal(a1-4)Gal(b1-4)GlcNAc(b1-2)Man(a1-3)[Gal(a1-4)Gal(b1-4)GlcNAc(b1-2)Man(a1-6)]Man(b1-4)GlcNAc(b1-4)GlcNAc
# Method in brief: as §1
# [44] = molecular target: Gal(a1-4)Gal(b1-4)GlcNAc(b1-3)Gal(b1-4)Glc
# Method in brief: as §1
# [45] = molecular target: Gal(a1-4)GlcNAc
# Method in brief: as §1
# [46] = molecular target: Gal(a1-6)Glc
# Method in brief: as §1
# [47] = molecular target: Gal(b1-2)Gal
# Method in brief: as §1
# [48] = molecular target: Gal(b1-3)Gal
# Method in brief: as §1
# [49] = molecular target: Gal(b1-3)Gal(b1-4)GlcNAc
# Method in brief: as §1
# [50] = molecular target: Gal(b1-3)GalNAc
# Method in brief: as §1
# [51] = molecular target: Gal(b1-3)GalNAc(a1-3)[Fuc(a1-2)]Gal(b1-4)Glc
# Method in brief: as §1
# [52] = molecular target: Gal(b1-3)GalNAc(a1-3)[Fuc(a1-2)]Gal(b1-4)GlcNAc
# Method in brief: as §1
# [53] = molecular target: Gal(b1-3)GalNAc(b1-3)Gal
# Method in brief: as §1
# [54] = molecular target: Gal(b1-3)GalNAc(b1-3)Gal(a1-4)Gal(b1-4)Glc
# Method in brief: as §1
# [55] = molecular target: Gal(b1-3)GalNAc(b1-4)Gal(b1-4)Glc
# Method in brief: as §1
# [56] = molecular target: Gal(b1-3)GalNAc(b1-4)[Neu5Ac(a2-3)]Gal(b1-4)Glc
# Method in brief: as §1
# [57] = molecular target: Gal(b1-3)GlcNAc
# Method in brief: as §1
# [58] = molecular target: Gal(b1-3)GlcNAc(a1-3)Gal(b1-4)GlcNAc
# Method in brief: as §1
# [59] = molecular target: Gal(b1-3)GlcNAc(a1-6)Gal(b1-4)GlcNAc
# Method in brief: as §1
# [60] = molecular target: Gal(b1-3)GlcNAc(b1-2)Man
# Method in brief: as §1
binder,measurement,setting,value
B1,glycan array binding signal (z-score),[1],-0.028
same,glycan array binding signal (z-score),[2],0.42
same,glycan array binding signal (z-score),[3],-0.261
same,glycan array binding signal (z-score),[4],2.11
same,glycan array binding signal (z-score),[5],-0.49
same,glycan array binding signal (z-score),[6],0.262
same,glycan array binding signal (z-score),[7],0.018
same,glycan array binding signal (z-score),[8],-0.902
same,glycan array binding signal (z-score),[9],0.465
same,glycan array binding signal (z-score),[10],-0.617
same,glycan array binding signal (z-score),[11],-0.541
same,glycan array binding signal (z-score),[12],0.328
same,glycan array binding signal (z-score),[13],-0.592
same,glycan array binding signal (z-score),[14],0.811
same,glycan array binding signal (z-score),[15],-0.429
same,glycan array binding signal (z-score),[16],-0.581
same,glycan array binding signal (z-score),[17],0.282
same,glycan array binding signal (z-score),[18],0.724
same,glycan array binding signal (z-score),[19],-0.581
same,glycan array binding signal (z-score),[20],0.359
same,glycan array binding signal (z-score),[21],0.318
same,glycan array binding signal (z-score),[22],-0.251
same,glycan array binding signal (z-score),[23],0.343
same,glycan array binding signal (z-score),[24],-0.393
same,glycan array binding signal (z-score),[25],-1.04
same,glycan array binding signal (z-score),[26],-0.058
same,glycan array binding signal (z-score),[27],0.745
same,glycan array binding signal (z-score),[28],-0.866
same,glycan array binding signal (z-score),[29],-0.653
same,glycan array binding signal (z-score),[30],0.011
same,glycan array binding signal (z-score),[31],-0.068
same,glycan array binding signal (z-score),[32],-0.419
same,glycan array binding signal (z-score),[33],1.19
same,glycan array binding signal (z-score),[34],-0.419
same,glycan array binding signal (z-score),[35],1.08
same,glycan array binding signal (z-score),[36],0.14
same,glycan array binding signal (z-score),[37],-0.119
same,glycan array binding signal (z-score),[38],-0.633
same,glycan array binding signal (z-score),[39],-0.81
same,glycan array binding signal (z-score),[40],-0.866
same,glycan array binding signal (z-score),[41],0.425
same,glycan array binding signal (z-score),[42],-0.477
same,glycan array binding signal (z-score),[43],0.973
same,glycan array binding signal (z-score),[44],-0.795
same,glycan array binding signal (z-score),[45],0.008
same,glycan array binding signal (z-score),[46],0.166
same,glycan array binding signal (z-score),[47],-0.155
same,glycan array binding signal (z-score),[48],0.044
same,glycan array binding signal (z-score),[49],-0.78
same,glycan array binding signal (z-score),[50],0.472
same,glycan array binding signal (z-score),[51],-0.937
same,glycan array binding signal (z-score),[52],-0.343
same,glycan array binding signal (z-score),[53],-0.358
same,glycan array binding signal (z-score),[54],-0.627
same,glycan array binding signal (z-score),[55],-0.043
same,glycan array binding signal (z-score),[56],-0.317
same,glycan array binding signal (z-score),[57],0.249
same,glycan array binding signal (z-score),[58],0.567
same,glycan array binding signal (z-score),[59],-0.724
same,glycan array binding signal (z-score),[60],0.455

# Given as tab-separated lines: part of the list above.
binder	measurement	setting	value
B1	glycan array binding signal (z-score)	[44]	-0.795
same	glycan array binding signal (z-score)	[45]	0.008

# A second format for part of the listing above:
binder	measurement	setting	value
B1	glycan array binding signal (z-score)	[3]	-0.261
same	glycan array binding signal (z-score)	[43]	0.973
